The list shows a part of the results. Most entries show no effect beyond the scatter of the controls.

Sequences of proteins named here, by UniProt entry; tags and fusion partners are left off. A change or cut given only in a name is not applied to a line headed by its entry.
UniProt P05060: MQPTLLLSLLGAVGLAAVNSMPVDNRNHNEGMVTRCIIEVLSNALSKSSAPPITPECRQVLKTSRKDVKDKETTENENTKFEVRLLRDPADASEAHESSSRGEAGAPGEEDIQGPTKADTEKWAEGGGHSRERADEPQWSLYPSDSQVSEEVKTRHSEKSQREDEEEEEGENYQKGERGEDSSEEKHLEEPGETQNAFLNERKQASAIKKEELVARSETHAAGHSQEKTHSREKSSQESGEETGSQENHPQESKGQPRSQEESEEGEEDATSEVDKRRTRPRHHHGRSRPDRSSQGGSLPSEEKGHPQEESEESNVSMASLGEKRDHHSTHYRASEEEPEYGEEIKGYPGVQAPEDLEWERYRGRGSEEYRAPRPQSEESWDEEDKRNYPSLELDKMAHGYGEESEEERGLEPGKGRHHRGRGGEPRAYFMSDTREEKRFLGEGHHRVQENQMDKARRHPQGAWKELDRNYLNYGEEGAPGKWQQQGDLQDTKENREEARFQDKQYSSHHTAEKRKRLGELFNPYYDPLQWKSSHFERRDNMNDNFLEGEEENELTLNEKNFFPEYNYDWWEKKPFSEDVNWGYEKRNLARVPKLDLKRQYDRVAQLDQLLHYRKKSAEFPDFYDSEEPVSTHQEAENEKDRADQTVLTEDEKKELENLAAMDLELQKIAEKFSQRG
UniProt P09884: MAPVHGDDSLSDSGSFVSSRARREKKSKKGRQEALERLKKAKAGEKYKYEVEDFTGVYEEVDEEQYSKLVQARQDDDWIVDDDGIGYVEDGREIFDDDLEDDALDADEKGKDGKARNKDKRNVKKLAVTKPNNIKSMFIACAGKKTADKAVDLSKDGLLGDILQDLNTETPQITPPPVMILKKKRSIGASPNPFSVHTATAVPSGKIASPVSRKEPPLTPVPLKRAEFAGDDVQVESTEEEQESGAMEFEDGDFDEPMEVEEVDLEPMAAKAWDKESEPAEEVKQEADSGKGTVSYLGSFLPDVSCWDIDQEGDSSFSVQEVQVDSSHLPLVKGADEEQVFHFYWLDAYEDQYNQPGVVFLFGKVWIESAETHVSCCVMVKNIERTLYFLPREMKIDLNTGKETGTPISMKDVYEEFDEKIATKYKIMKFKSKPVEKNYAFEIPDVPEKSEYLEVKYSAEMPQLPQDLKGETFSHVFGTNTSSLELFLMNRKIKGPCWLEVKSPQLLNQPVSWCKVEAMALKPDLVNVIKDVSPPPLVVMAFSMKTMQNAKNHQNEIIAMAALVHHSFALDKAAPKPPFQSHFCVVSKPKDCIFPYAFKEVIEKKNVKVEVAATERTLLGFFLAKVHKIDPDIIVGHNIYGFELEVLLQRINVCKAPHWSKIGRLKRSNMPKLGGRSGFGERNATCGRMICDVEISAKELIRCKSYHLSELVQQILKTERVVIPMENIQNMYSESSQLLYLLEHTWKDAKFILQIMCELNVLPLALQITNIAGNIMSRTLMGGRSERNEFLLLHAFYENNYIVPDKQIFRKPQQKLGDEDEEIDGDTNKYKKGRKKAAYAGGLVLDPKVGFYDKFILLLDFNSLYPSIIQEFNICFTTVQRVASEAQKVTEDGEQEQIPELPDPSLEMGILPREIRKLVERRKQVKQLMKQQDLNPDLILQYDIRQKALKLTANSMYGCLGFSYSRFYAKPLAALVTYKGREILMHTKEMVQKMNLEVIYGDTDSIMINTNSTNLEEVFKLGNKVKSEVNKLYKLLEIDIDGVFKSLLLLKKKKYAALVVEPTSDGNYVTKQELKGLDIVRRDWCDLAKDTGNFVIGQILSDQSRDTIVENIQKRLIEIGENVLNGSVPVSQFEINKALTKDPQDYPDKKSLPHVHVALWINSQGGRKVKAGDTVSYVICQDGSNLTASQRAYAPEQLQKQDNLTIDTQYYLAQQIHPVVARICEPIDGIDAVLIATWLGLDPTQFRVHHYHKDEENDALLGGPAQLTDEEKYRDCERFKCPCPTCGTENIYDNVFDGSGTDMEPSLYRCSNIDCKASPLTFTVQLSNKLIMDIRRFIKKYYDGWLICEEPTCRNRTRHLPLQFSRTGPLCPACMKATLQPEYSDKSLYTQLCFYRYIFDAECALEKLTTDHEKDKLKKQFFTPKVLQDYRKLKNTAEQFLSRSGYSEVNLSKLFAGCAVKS
UniProt P0DPI2: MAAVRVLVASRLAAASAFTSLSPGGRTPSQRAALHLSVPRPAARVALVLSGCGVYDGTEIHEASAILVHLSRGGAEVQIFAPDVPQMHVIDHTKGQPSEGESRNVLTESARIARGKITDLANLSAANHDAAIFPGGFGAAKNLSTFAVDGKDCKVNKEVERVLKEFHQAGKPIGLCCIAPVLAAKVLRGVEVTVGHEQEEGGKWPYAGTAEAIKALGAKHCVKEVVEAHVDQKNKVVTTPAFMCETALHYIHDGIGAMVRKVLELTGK
UniProt P04899, whole entry: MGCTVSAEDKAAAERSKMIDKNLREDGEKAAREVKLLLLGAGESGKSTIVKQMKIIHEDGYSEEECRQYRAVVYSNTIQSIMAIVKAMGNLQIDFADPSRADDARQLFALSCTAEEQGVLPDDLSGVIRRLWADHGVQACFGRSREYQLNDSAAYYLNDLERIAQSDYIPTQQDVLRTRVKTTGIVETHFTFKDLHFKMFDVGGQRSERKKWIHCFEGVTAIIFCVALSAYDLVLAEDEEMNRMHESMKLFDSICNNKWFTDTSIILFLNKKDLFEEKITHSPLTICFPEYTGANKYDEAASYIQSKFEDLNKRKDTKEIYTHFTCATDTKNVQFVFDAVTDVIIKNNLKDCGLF
UniProt P05166: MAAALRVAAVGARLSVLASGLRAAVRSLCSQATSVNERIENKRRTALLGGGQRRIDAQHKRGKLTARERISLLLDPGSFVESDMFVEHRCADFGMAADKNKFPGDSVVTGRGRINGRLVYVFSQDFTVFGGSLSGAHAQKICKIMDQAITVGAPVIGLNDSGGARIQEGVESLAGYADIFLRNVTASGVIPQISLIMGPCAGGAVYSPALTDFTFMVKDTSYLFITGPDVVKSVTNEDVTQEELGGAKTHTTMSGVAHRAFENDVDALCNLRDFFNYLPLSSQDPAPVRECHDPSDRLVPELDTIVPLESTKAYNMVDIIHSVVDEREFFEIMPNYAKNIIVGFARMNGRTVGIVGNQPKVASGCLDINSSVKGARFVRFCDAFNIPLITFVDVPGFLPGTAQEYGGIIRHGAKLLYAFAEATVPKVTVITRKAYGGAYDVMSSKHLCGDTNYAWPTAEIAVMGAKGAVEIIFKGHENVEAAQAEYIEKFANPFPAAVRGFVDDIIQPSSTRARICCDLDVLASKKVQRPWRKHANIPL
UniProt P10619: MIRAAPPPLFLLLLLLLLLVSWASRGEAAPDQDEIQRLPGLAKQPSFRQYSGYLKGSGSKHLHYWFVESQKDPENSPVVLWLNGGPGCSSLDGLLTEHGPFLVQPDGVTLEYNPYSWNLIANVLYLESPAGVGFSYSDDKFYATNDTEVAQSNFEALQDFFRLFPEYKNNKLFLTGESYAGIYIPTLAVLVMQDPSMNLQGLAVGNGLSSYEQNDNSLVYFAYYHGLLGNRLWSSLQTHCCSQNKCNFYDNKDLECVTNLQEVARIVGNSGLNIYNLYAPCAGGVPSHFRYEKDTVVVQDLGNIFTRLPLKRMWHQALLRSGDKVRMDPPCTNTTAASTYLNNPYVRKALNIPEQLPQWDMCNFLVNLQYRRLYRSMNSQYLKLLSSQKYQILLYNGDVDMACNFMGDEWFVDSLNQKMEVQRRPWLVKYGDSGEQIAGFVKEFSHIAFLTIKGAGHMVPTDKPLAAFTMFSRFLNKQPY
UniProt P01031, whole entry: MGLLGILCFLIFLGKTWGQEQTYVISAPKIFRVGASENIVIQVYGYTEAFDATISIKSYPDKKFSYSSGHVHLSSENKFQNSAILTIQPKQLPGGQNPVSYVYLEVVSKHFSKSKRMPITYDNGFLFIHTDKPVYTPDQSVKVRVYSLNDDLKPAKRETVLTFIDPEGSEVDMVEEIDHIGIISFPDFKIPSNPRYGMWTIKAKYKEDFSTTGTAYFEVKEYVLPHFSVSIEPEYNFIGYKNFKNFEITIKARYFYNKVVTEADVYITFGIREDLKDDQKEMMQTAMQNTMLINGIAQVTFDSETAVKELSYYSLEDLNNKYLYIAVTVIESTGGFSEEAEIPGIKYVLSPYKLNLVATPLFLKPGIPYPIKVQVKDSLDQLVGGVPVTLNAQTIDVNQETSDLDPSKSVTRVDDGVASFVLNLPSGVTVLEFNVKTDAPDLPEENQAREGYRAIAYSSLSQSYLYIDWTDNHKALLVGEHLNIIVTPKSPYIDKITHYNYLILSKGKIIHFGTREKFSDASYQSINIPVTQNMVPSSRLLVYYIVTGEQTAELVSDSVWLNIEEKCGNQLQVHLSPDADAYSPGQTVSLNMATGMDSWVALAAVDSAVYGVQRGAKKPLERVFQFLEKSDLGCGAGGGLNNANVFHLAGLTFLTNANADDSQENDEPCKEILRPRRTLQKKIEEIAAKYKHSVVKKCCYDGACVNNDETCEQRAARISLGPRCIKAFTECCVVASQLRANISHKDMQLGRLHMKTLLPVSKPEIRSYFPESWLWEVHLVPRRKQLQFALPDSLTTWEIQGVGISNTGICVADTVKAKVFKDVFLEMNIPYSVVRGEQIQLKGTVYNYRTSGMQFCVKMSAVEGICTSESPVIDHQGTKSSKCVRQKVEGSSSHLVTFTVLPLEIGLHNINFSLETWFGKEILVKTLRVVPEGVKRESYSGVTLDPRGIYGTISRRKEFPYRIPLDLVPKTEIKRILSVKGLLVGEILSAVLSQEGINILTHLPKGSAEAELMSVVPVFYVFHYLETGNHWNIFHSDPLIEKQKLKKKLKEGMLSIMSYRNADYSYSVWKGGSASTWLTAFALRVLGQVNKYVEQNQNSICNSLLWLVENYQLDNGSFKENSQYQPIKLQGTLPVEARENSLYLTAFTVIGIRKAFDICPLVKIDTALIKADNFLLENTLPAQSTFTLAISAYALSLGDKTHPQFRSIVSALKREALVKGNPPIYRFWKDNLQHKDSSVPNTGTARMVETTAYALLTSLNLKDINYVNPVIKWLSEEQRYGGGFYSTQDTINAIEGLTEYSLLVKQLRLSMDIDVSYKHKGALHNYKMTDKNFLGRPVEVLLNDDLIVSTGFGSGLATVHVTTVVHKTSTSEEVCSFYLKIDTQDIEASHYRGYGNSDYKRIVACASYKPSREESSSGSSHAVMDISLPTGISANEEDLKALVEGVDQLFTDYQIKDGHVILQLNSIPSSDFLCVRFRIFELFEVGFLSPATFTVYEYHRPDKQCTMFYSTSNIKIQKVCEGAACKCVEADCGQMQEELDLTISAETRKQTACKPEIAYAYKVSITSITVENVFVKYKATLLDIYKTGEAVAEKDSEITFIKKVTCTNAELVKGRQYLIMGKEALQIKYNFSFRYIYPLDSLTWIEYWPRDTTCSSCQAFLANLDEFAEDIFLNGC
UniProt P10276, whole entry: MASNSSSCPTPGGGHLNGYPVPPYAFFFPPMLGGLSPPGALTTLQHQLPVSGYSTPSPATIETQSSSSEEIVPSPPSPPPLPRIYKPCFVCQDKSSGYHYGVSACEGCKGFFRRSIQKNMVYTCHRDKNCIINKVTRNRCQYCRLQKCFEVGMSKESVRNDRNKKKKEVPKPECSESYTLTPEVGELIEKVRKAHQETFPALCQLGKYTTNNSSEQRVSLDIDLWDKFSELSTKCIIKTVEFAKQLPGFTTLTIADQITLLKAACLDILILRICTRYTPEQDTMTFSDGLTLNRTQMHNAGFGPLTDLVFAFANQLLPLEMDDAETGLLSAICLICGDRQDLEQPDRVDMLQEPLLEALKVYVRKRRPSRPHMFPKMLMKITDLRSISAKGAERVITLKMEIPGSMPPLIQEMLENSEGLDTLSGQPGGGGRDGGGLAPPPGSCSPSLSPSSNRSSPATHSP
UniProt P0C0S5, whole entry: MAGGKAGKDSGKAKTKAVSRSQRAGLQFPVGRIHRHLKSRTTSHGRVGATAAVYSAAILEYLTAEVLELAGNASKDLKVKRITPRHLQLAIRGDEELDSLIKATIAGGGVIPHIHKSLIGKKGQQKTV
UniProt P0CG00: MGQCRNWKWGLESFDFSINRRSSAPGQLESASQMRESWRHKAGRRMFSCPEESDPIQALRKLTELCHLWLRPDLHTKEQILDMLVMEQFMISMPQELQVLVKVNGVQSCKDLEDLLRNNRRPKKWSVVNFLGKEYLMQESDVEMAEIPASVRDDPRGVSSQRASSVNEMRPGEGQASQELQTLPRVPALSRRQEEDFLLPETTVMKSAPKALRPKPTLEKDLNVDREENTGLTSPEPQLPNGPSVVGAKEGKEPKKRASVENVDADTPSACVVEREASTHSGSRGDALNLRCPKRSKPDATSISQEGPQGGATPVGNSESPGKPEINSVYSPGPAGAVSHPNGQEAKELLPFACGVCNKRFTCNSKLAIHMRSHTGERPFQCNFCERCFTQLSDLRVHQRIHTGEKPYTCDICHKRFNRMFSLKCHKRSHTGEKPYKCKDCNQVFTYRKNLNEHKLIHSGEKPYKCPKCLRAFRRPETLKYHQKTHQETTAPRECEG

Compound in the assay: CN[C@@H]1C[C@H]2O[C@@](C)([C@@H]1OC)n1c3ccccc3c3c4c(c5c6ccccc6n2c5c31)C(=O)NC4 [staurosporine]
Briefly: log2 fold change of tryptic peptide abundance, ligand vs vehicle (limited proteolysis) (log2 ratio); higher = more trypsin-susceptible (destabilized). The settings on record: ligand concentration: 20 uM; sample: K562 cleared lysate; digestion: 4 min, 22 C (HT-PELSA RT4min, Orbitrap Astral).
In the case of “UniProt P05060 (peptide sequence: RHPQGAWK, peptide start residue: 458)”, the log2 fold change is -0.154.

On to “ACAA1 (peptide sequence: RSITVTQDEGIRPSTTMEGLAK, peptide start residue: 238) (UniProt P09110)”, for which the log2 fold change is -0.385. Turning to “POLA1 (peptide sequence: LAVTKPNNIK, peptide start residue: 126) (UniProt P09884)”, the log2 fold change was 0.266. Consider “UniProt P0DPI2 (peptide sequence: GGAEVQIFAPDVPQMHVIDHTK, peptide start residue: 73)”, for which the log2 fold change is -0.329. With “GNAI2 (peptide sequence: MIDKNLR, peptide start residue: 18) (UniProt P04899)”, the log2 fold change turned out to be 0.3. For “CALB1 (peptide sequence: TFVDQYGQRDDGK, peptide start residue: 60) (UniProt P05937)”, the log2 fold change came to 0.527. Then “PCCB (peptide sequence: ERISLLLDPGSFVESDMFVEHR, peptide start residue: 68) (UniProt P05166)”, with -0.679; and “UniProt P04733 (peptide sequence: CAQGCVCK, peptide start residue: 44)”, with 0.135; and “UniProt P10589 (peptide sequence: IFQEQVEK, peptide start residue: 294)”, with -0.309. With “EIF2S1 (peptide sequence: TAWVFDDKYK, peptide start residue: 134) (UniProt P05198)” the figure was 0.455; with “CTSA (peptide sequence: EFSHIAFLTIK, peptide start residue: 443) (UniProt P10619)”, 1.1; with “C5 (peptide sequence: GAKKPLER, peptide start residue: 615) (UniProt P01031)”, -0.0186. For “NR3C1 (peptide sequence: VSASSPSLAVASQSDSK, peptide start residue: 41) (UniProt P04150)”, the log2 fold change was -0.317. Then “UniProt P10276 (peptide sequence: AACLDILILR, peptide start residue: 263)”, with 0.102. As for “UniProt P0C0S5 (peptide sequence: ATIAGGGVIPHIHK, peptide start residue: 103)”, the log2 fold change amounted to 0.129. As to “UniProt P0CG00 (peptide sequence: KNLNEHK, peptide start residue: 449)”, the log2 fold change stood at 0.324.

As to “PGK1 (peptide sequence: NNQITNNQR, peptide start residue: 31) (UniProt P00558)”, the log2 fold change was -0.232.
